From the supplement of paper PMC10849652
The other results are listed elsewhere or left out.

Amino acid sequences for entries named in this document (tags omitted). A change or cut given only in a name is not applied to a line headed by its entry.
UniProt Q9BRY0: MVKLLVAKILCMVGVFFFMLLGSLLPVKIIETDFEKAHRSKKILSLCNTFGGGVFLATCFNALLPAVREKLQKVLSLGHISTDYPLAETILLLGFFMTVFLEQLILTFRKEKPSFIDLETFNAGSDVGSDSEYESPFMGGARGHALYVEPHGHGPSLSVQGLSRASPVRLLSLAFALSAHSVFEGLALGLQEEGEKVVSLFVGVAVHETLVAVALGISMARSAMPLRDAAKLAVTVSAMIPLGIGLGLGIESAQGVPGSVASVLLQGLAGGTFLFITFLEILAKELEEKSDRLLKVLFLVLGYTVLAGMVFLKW
UniProt Q7Z2H8: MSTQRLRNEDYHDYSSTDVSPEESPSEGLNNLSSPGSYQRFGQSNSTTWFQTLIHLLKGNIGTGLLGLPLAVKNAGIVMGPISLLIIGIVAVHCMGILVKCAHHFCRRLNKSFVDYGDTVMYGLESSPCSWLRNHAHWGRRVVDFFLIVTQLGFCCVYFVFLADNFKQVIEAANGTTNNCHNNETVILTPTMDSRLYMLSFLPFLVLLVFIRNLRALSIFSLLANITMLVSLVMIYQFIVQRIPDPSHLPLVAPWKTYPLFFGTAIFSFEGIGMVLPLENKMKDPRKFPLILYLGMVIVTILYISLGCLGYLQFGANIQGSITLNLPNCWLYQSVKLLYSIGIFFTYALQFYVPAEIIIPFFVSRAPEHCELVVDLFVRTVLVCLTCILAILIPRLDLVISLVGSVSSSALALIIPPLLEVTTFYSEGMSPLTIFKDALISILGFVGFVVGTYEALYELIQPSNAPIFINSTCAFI
UniProt P50443: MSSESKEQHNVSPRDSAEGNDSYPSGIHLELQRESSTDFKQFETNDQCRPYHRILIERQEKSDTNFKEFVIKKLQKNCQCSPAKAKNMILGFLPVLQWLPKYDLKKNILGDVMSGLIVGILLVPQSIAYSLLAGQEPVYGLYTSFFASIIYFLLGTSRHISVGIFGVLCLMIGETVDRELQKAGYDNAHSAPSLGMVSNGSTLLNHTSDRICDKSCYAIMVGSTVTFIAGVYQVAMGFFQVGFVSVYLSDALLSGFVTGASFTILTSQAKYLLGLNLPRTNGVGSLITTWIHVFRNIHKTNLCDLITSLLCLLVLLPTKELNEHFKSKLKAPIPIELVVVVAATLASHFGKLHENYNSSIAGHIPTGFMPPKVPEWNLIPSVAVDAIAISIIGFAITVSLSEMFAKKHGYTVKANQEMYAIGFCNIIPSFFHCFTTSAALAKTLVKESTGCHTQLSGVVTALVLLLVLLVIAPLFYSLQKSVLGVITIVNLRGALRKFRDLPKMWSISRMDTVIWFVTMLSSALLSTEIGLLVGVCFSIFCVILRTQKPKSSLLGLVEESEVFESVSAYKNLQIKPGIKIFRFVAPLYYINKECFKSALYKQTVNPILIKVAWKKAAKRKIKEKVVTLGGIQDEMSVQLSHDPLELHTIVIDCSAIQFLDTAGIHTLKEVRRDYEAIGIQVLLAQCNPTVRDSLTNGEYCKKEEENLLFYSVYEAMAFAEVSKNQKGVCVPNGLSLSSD
UniProt Q9UBX3: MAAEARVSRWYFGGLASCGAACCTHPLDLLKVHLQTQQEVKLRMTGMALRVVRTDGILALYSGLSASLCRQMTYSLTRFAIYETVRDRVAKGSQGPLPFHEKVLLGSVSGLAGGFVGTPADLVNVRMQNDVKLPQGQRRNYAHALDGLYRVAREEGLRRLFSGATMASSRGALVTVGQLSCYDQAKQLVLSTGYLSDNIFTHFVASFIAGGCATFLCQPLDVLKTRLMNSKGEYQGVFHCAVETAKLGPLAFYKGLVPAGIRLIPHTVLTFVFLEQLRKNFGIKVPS
UniProt O75387: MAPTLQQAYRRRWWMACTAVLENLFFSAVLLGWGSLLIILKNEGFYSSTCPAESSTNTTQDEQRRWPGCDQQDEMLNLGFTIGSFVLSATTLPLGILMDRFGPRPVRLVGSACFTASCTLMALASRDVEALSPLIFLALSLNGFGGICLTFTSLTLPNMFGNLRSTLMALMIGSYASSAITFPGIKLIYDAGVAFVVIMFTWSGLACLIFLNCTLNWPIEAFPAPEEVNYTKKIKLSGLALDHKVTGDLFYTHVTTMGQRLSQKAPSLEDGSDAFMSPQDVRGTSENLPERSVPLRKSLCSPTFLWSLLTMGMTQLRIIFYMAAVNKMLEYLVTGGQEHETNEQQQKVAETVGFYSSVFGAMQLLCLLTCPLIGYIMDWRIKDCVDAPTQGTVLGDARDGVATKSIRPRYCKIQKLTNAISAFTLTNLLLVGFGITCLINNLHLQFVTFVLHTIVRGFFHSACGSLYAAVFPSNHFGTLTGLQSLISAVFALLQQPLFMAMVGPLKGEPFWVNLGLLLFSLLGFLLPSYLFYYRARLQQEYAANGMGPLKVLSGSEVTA
UniProt Q96DW6: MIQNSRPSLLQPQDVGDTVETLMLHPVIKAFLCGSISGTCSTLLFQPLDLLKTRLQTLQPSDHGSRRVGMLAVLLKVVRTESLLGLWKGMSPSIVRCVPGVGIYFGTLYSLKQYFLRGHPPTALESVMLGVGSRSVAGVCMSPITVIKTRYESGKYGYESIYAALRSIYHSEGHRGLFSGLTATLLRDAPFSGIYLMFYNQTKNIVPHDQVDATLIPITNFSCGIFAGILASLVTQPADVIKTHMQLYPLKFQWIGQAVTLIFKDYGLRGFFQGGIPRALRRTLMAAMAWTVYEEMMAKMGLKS
UniProt P05141: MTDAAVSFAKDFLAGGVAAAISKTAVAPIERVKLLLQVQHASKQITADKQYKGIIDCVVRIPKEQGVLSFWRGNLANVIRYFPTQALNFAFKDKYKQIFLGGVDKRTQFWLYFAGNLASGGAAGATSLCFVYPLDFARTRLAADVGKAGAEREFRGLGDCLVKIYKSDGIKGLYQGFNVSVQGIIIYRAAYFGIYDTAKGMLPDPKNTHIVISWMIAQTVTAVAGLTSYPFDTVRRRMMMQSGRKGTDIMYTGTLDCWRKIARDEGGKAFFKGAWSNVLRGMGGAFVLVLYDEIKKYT
UniProt Q9BSK2: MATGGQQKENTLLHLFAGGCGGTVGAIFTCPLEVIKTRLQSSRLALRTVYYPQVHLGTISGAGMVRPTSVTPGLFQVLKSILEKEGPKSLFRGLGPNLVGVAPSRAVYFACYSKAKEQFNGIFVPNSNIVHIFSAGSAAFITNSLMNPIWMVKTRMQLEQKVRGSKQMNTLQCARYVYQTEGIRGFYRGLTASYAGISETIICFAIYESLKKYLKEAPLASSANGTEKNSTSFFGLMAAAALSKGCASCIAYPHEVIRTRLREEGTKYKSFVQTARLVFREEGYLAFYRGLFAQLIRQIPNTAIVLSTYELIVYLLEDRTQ
UniProt Q6XR72: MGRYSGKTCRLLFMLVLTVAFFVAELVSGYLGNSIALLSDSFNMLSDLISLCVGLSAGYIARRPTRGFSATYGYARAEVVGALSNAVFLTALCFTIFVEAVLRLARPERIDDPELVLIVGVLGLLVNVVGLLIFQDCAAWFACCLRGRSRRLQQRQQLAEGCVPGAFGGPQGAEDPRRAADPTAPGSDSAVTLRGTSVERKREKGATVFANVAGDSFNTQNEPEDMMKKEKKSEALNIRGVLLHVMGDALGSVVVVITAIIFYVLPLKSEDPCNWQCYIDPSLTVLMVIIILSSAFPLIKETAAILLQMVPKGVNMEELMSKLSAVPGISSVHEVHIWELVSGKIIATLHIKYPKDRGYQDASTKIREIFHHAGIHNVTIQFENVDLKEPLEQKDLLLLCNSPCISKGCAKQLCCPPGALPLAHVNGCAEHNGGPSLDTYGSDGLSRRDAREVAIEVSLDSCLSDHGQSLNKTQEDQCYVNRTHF
UniProt O00193: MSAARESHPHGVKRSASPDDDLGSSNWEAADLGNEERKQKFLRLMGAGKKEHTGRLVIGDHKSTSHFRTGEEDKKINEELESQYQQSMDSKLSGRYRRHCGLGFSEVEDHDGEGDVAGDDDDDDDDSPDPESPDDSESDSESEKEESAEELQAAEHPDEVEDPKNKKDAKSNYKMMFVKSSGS
UniProt Q9HAB3: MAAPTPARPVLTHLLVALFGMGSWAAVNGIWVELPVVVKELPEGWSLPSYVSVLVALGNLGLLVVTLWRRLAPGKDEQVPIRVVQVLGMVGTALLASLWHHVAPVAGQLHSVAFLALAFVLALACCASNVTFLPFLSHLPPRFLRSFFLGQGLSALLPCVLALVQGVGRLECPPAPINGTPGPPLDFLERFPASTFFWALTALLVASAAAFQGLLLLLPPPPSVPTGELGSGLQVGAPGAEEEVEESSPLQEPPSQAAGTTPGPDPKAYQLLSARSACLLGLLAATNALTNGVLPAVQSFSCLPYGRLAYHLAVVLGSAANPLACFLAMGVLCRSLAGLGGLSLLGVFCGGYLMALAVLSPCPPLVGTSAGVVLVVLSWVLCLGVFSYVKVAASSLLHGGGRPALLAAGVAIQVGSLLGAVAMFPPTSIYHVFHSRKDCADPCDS
UniProt Q9Y289: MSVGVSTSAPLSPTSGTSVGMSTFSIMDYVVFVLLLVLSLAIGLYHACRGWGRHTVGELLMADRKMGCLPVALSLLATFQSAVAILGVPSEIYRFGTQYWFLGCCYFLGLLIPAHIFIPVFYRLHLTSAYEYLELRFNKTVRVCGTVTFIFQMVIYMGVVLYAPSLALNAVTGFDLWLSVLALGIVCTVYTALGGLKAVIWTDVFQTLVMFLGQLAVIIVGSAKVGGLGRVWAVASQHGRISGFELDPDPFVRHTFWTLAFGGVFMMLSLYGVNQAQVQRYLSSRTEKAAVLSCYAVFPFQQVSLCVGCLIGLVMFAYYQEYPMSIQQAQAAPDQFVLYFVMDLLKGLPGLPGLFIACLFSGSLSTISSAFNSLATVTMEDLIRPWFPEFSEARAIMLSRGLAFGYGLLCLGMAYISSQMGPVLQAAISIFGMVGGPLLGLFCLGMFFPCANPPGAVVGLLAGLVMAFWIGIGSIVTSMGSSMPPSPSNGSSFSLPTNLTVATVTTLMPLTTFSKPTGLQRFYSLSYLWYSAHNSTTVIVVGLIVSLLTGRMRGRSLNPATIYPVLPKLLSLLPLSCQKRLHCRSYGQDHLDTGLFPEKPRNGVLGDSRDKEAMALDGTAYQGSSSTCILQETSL
UniProt Q8TBP6: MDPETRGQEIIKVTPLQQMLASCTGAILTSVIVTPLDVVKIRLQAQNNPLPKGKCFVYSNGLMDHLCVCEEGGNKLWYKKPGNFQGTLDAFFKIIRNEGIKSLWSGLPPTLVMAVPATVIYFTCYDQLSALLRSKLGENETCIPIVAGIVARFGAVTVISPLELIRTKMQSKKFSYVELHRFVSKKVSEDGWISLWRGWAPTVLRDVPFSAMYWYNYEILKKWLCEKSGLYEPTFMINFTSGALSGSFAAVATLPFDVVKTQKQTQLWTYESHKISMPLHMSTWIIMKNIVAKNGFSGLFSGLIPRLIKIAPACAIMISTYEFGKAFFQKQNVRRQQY
UniProt O43772: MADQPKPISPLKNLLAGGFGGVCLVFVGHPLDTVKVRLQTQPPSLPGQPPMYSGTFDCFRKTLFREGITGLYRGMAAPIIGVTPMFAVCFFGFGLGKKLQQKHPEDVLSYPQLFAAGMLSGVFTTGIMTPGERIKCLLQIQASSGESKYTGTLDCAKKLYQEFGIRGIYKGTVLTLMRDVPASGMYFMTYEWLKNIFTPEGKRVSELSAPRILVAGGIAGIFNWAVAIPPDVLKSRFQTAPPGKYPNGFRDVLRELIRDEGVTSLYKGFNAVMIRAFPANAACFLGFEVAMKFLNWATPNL

Tests used:
Assay in all cases: log2 fold change, soluble protein after heating vs DMSO (PISA); higher = thermal stabilisation; K562 lysate, 10 uM; active = over 0.2 and 3.5 SD of the protein, either way, in both replicates (recomputed)
lapatinib = compound: CS(=O)(=O)CCNCc1ccc(-c2ccc3ncnc(Nc4ccc(OCc5cccc(F)c5)c(Cl)c4)c3c2)o1 [lapatinib]
In short: (§1)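 A 30 min treatment with 10 μM compound was applied to crude K562 extract at 1 mg/mL protein in PBS pH 7.4 with 1 mM MgCl2. Heating for 3 min spanned 48°C-58°C, after which aliquots were pooled, adjusted to 0.5% NP-40 at 4°C and spun at 21,000xg for 90 min. TMTpro 16plex LC-MS/MS of the supernatant, with channel sums equalised, gave values recorded as log-two fold change in thermal stability against solvent controls, from duplicates.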

pictilisib = compound: CS(=O)(=O)N1CCN(Cc2cc3nc(-c4cccc5[nH]ncc45)nc(N4CCOCC4)c3s2)CC1 [pictilisib]
In short: as §1

crizotinib = compound: C[C@@H](Oc1cc(-c2cnn(C3CCNCC3)c2)cnc1N)c1c(Cl)ccc(F)c1Cl [crizotinib]
In short: as §1

[1] = compound: C[C@H](C1=CC=C(C=C1)C(=O)NC2=C3C=CNC3=NC=C2)N
In short: as §1

duvelisib = compound: C[C@H](Nc1ncnc2nc[nH]c12)c1cc2cccc(Cl)c2c(=O)n1-c1ccccc1 [duvelisib]
In short: as §1

gandotinib = compound: Cc1cc(Nc2cc(CN3CCOCC3)c3nc(C)c(Cc4ccc(Cl)cc4F)n3n2)n[nH]1 [gandotinib]
In short: as §1

tozasertib = compound: Cc1cc(Nc2cc(N3CCN(C)CC3)nc(Sc3ccc(NC(=O)C4CC4)cc3)n2)n[nH]1 [tozasertib]
In short: as §1

doramapimod = compound: Cc1ccc(-n2nc(C(C)(C)C)cc2NC(=O)Nc2ccc(OCCN3CCOCC3)c3ccccc23)cc1 [doramapimod]
In short: as §1

bafetinib = compound: Cc1ccc(NC(=O)c2ccc(CN3CC[C@H](N(C)C)C3)c(C(F)(F)F)c2)cc1Nc1nccc(-c2cncnc2)n1 [bafetinib]
In short: as §1

[2] = compound: Cc1cccc(CC(=O)N2CCc3c2ccc(-c2cn(C)c4ncnc(N)c24)c3F)n1
In short: as §1

| Target | log2 fold change (lapatinib) | log2 fold change (pictilisib) | log2 fold change (crizotinib) | log2 fold change [1] | log2 fold change (duvelisib) | log2 fold change (gandotinib) | log2 fold change (tozasertib) | log2 fold change (doramapimod) | log2 fold change (bafetinib) | log2 fold change [2] |
| --- | --- | --- | --- | --- | --- | --- | --- | --- | --- | --- |
| SLC39A3 (UniProt Q9BRY0) | inactive: 0.032 | inactive: 0.006 | inactive: 0 | inactive: -0.104 | inactive: -0.012 | inactive: 0.025 | inactive: 0.01 | inactive: 0.028 | inactive: -0.033 | inactive: 0.002 |
| SLC36A1 (UniProt Q7Z2H8) | inactive: 0.02 | inactive: -0.049 | inactive: -0.067 | inactive: -0.046 | inactive: 0.055 | inactive: -0.023 | inactive: -0.092 | inactive: 0.088 | inactive: -0.019 | inactive: 0.144 |
| SLC26A2 (UniProt P50443) | inactive: -0.081 | inactive: -0.119 | inactive: -0.089 | inactive: -0.022 | inactive: -0.052 | inactive: 0.098 | inactive: 0.005 | inactive: 0.04 | inactive: 0.233 | inactive: 0.113 |
| SLC25A10 isoform 2 (UniProt Q9UBX3) | inactive: 0.008 | inactive: 0.014 | inactive: -0.021 | inactive: -0.013 | inactive: -0.001 | inactive: 0.009 | inactive: 0.002 | inactive: -0.026 | inactive: -0.042 | inactive: -0.017 |
| SLC43A1 (UniProt O75387) | inactive: 0.033 | inactive: 0.088 | inactive: 0.001 | inactive: -0.043 | inactive: 0.039 | inactive: 0.05 | inactive: -0.004 | inactive: -0.031 | inactive: -0.058 | inactive: 0.076 |
| SLC25A38 (UniProt Q96DW6) | inactive: -0.093 | inactive: -0.026 | inactive: -0.044 | inactive: -0.072 | inactive: 0.173 | inactive: -0.055 | active: 0.391 | inactive: -0.024 | inactive: -0.025 | inactive: 0.112 |
| SLC25A5 (UniProt P05141) | inactive: 0.008 | inactive: 0.006 | inactive: 0.034 | inactive: 0.112 | inactive: -0.037 | inactive: -0.064 | inactive: -0.06 | inactive: -0.077 | inactive: 0.066 | inactive: -0.102 |
| SLC25A33 (UniProt Q9BSK2) | inactive: -0.019 | inactive: 0.019 | inactive: -0.005 | inactive: -0.073 | inactive: 0.01 | inactive: 0.004 | inactive: -0.059 | inactive: -0.031 | inactive: -0.07 | inactive: 0.018 |
| SLC30A10 (UniProt Q6XR72) | inactive: -0.057 | inactive: -0.024 | inactive: -0.005 | inactive: -0.156 | inactive: 0.015 | inactive: -0.348 | inactive: 0.048 | inactive: 0.004 | inactive: 0.07 | inactive: 0.25 |
| SMAP (UniProt O00193) | inactive: 0.005 | inactive: 0.008 | inactive: 0.101 | inactive: -0.032 | inactive: -0.015 | inactive: 0.068 | inactive: 0.024 | inactive: -0.087 | inactive: 0.013 | inactive: -0.008 |
| SLC52A2 (UniProt Q9HAB3) | inactive: -0.194 | inactive: -0.008 | inactive: 0.003 | inactive: -0.082 | inactive: 0.002 | inactive: 0.064 | inactive: 0.133 | inactive: -0.018 | inactive: 0.004 | inactive: 0.032 |
| SLC5A6 (UniProt Q9Y289) | inactive: -0.018 | inactive: -0.062 | inactive: -0.001 | inactive: 0.087 | inactive: 0.027 | inactive: 0.002 | inactive: 0.003 | inactive: -0.025 | inactive: -0.034 | inactive: 0.012 |
| SLC25A40 (UniProt Q8TBP6) | inactive: 0.002 | inactive: -0.008 | inactive: -0.01 | inactive: 0.171 | inactive: 0.007 | inactive: -0.129 | inactive: -0.006 | inactive: -0.067 | inactive: -0.003 | inactive: -0.157 |
| SLC25A20 (UniProt O43772) | inactive: -0.016 | inactive: -0.034 | inactive: 0.03 | inactive: -0.091 | inactive: -0.022 | inactive: 0.022 | inactive: -0.005 | inactive: 0.024 | inactive: 0.005 | inactive: 0.046 |

Whole records, quoted from the list. Order of values: log2 fold change (lapatinib)	log2 fold change (pictilisib)	log2 fold change (crizotinib)	log2 fold change [1]	log2 fold change (duvelisib)	log2 fold change (gandotinib)	log2 fold change (tozasertib)	log2 fold change (doramapimod)	log2 fold change (bafetinib)	log2 fold change [2]
SLC25A40 (UniProt Q8TBP6) as listed: inactive: 0.002	inactive: -0.008	inactive: -0.01	inactive: 0.171	inactive: 0.007	inactive: -0.129	inactive: -0.006	inactive: -0.067	inactive: -0.003	inactive: -0.157
SLC43A1 (UniProt O75387) as listed: inactive: 0.033	inactive: 0.088	inactive: 0.001	inactive: -0.043	inactive: 0.039	inactive: 0.05	inactive: -0.004	inactive: -0.031	inactive: -0.058	inactive: 0.076
